Data published in patent US20210206877A1.
No constants are given. Whether binding was seen depends on the method and setting. Some entries that bind do so weakly or less than the wild type.

The chains behind the UniProt entries cited, without tags or fusion partners. Where a name states a change or a piece, a line headed by the entry shows the natural chain unless it says otherwise.
UniProt P56817: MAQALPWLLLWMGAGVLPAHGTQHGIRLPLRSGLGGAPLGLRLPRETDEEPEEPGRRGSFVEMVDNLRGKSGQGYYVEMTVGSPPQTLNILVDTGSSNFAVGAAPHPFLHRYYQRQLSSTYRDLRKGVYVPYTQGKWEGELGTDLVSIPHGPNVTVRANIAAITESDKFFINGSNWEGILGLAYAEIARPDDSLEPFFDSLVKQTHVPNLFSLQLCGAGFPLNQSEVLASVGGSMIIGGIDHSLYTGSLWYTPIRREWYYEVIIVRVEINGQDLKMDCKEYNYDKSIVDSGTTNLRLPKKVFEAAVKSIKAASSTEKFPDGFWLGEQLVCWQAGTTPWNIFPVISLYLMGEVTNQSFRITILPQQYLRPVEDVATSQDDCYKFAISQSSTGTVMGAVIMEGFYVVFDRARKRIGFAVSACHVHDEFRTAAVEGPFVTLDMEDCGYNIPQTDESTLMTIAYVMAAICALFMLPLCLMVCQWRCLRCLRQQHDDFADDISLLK

B1: affinity matured antibody 6266 variant 8, Fab (Fab, V domains shown)
VH: QVQLVQSGAEVKKPGSSVKVSCKASGGTLKGYGVSWVRQAPGQGLEWMGNIIPGFGTANYAQKFQGRVTITADESTSTAYMELSSLRSEDTAVYYCARGGGTKYGMLDVWGQGTMVTVSS
VL: EIVMTQSPATLSVSPGERATLSCRASQSVSSNLAWYQQKPGQAPRLLIYGASTRAYGIPARFSGSGSGTEFTLTISSLQSEDFAVYYCQQLILWPPRTFGGGTKVEIK
B2: affinity matured antibody 6266 variant 10, Fab (Fab, V domains shown)
VH: QVQLVQSGAEVKKPGSSVKVSCKASGGTLSGYGVSWVRQAPGQGLEWMGNIIPGFGTANYAQKFQGRVTITADESTSTAYMELSSLRSEDTAVYYCARSGGTKYGMLDVWGQGTMVTVSS
VL: EIVMTQSPATLSVSPGERATLSCRASQSVSSNLAWYQQKPGQAPRLLIYGASKRATGIPARFSGSGSGTEFTLTISSLQSEDFAVYYCQQLILWPPRTFGGGTKVEIK
B3: affinity matured antibody 6266 variant 14, Fab (Fab, V domains shown)
VH: QVQLVQSGAEVKKPGSSVKVSCKASGGTLSGYGVSWVRQAPGQGLEWMGNIIPGFGVANYAQKFQGRVTITADESTSTAYMELSSLRSEDTAVYYCARSGGTKWGMLDVWGQGTMVTVSS
VL: EIVMTQSPATLSVSPGERATLSCRASQSVSSNLAWYQQKPGQAPRLLIYGASTRATGIPARFSGSGSGTEFTLTISSLQSEDFAVYYCQQLILWPPRTFGGGTKVEIK
B4: affinity matured antibody 6266 variant 12, Fab (Fab, V domains shown)
VH: QVQLVQSGAEVKKPGSSVKVSCKASGGTLNGYGVSWVRQAPGQGLEWMGNIIPGFGTANYAQKFQGRVTITADESTSTAYMELSSLRSEDTAVYYCARSGGTKYGMLDVWGQGTMVTVSS
VL: EIVMTQSPATLSVSPGERATLSCRASQSVSSNLAWYQQKPGQAPRLLIYGASTRATGIPARFSGSGSGTEFTLTISSLQSEDFAVYYCQQLILWPPRTFGGGTKVEIK
B5: affinity matured antibody 6266 variant 6, Fab (Fab, V domains shown)
VH: QVQLVQSGAEVKKPGSSVKVSCKASGGTLSHYGVSWVRQAPGQGLEWMGNIIPGIGTANYAQKFQGRVTITADESTSTAYMELSSLRSEDTAVYYCARSGGTQYGMLDVWGQGTMVTVSS
VL: EIVMTQSPATLSVSPGERATLSCRASQSVSSNLAWYQQKPGQAPRLLIYGASTRAYGIPARFSGSGSGTEFTLTISSLQSEDAAVYYCQQLILWPPRTFGGGTKVEIK
B6: affinity matured antibody 6266 variant 7, Fab (Fab, V domains shown)
VH: QVQLVQSGAEVKKPGSSVKVSCKASGGTLSHYGVSWVRQAPGQGLEWMGNIIPGIGTANYAQKFQGRVTITADESTSTAYMELSSLRSEDTAVYYCARSGGTKYGELDVWGQGTMVTVSS
VL: EIVMTQSPATLSVSPGERATLSCRASQSVSSNLAWYQQKPGQAPRLLIYGASTRAYGIPARFSGSGSGTEFTLTISSLQSEDAAVYYCQQLILWPPRTFGGGTKVEIK
B7: affinity matured antibody 6266 variant 5, Fab (Fab, V domains shown)
VH: QVQLVQSGAEVKKPGSSVKVSCKASGGTLSHYGVSWVRQAPGQGLEWMGNIIPGIGTANYAQKFQGRVTITADESTSTAYMELSSLRSEDTAVYYCARSGGTQYGMLDVWGQGTMVTVSS
VL: EIVMTQSPATLSVSPGERATLSCRASQSVSSNLAWYQQKPGQAPRLLIYGASKRATGIPARFSGSGSGTEFTLTISSLQSEDAAVYYCQQLILWPPRTFGGGTKVEIK
B8: affinity matured antibody 6266 variant 11, Fab (Fab, V domains shown)
VH: QVQLVQSGAEVKKPGSSVKVSCKASGGTLSGYGVSWVRQAPGQGLEWMGNIIPGFGTANYAQKFQGRVTITADESTSTAYMELSSLRSEDTAVYYCARSGGTKYGMLDVWGQGTMVTVSS
VL: EIVMTQSPATLSVSPGERATLSCRASQSVSSNLAWYQQKPGQAPRLLIYGASTRAYGIPARFSGSGSGTEFTLTISSLQSEDFAVYYCQQLILWPPRTFGGGTKVEIK
B9: affinity matured antibody 6266 variant 15, Fab (Fab, V domains shown)
VH: QVQLVQSGAEVKKPGSSVKVSCKASGGTLSGYGVSWVRQAPGQGLEWMGNIIPGFGTANYAQKFQGRVTITADESTSTAYMELSSLRSEDTAVYYCARSGGTKYGELDVWGQGTMVTVSS
VL: EIVMTQSPATLSVSPGERATLSCRASQSVSSNLAWYQQKPGQAPRLLIYGASTRATGIPARFSGSGSGTEFTLTISSLQSEDFAVYYCQQLILWPPRTFGGGTKVEIK
B10: affinity matured antibody 6266 variant 9, Fab (Fab, V domains shown)
VH: QVQLVQSGAEVKKPGSSVKVSCKASGGTLKGYGVSWVRQAPGQGLEWMGNIIPGFGTANYAQKFQGRVTITADESTSTAYMELSSLRSEDTAVYYCARGGGTKYGMLDVWGQGTMVTVSS
VL: EIVMTQSPATLSVSPGERATLSCRASQSVSSNLAWYQQKPGQAPRLLIYGASKRATGIPARFSGSGSGTEFTLTISSLQSEDFAVYYCQQLILWPPRTFGGGTKVEIK
B11: affinity matured antibody 6266 variant 13, Fab (Fab, V domains shown)
VH: QVQLVQSGAEVKKPGSSVKVSCKASGGTLSGYGMSWVRQAPGQGLEWMGNIIPGFGTANYAQKFQGRVTITADESTSTAYMELSSLRSEDTAVYYCARSGGTKYGMLDVWGQGTMVTVSS
VL: EIVMTQSPATLSVSPGERATLSCRASQSVSSNLAWYQQKPGQAPRLLIYGASTRATGIPARFSGSGSGTEFTLTISSLQSEDFAVYYCQQLILWPPRTFGGGTKVEIK
B12: affinity matured antibody 6266 variant 1, Fab (Fab, V domains shown)
VH: QVQLVQSGAEVKKPGSSVKVSCKASGGTLSHYGVSWVRQAPGQGLEWMGNIIPGIGTANYAQKFQGRVTITADESTSTAYMELSSLRSEDTAVYYCARSGGTKYGMLDVWGQGTMVTVSS
VL: EIVMTQSPATLSVSPGERATLSCRASQSVSSNLAWYQQKPGQAPRLLIYGASTRATGIPARFSGSGSGTEFTLTISSLQSEDFAVYYCQQLILWPPRTFGGGTKVEIK
B13: affinity matured antibody 6266 variant 4, Fab (Fab, V domains shown)
VH: QVQLVQSGAEVKKPGSSVKVSCKASGGTLSHYGVSWVRQAPGQGLEWMGNIIPGIGTANYAQKFQGRVTITADESTSTAYMELSSLRSEDTAVYYCARSGGTKYGMLDVWGQGTMVTVSS
VL: EIVMTQSPATLSVSPGERATLSCRASQSVSSNLAWYQQKPGQAPRLLIYGASKRATGIPARFSGSGSGTEFTLTISSLQSEDFAVYYCQQLILWPPRTFGGGTKVEIK
B14: affinity matured antibody 6266 variant 3, Fab (Fab, V domains shown)
VH: QVQLVQSGAEVKKPGSSVKVSCKASGGTLSHYGVSWVRQAPGQGLEWMGNIIPGIGTANYAQKFQGRVTITADESTSTAYMELSSLRSEDTAVYYCARSGGTKYGMLDVWGQGTMVTVSS
VL: EIVMTQSPATLSVSPGERATLSCRASQSVSSNLAWYQQKPGQAPRLLIYGASTRAYGIPARFSGSGSGTEFTLTISSLQSEDFAVYYCQQLILWPPRTFGGGTKVEIK
B15: affinity matured antibody 6266 variant 2, Fab (Fab, V domains shown)
VH: QVQLVQSGAEVKKPGSSVKVSCKASGGTLSHYGVSWVRQAPGQGLEWMGNIIPGIGTANYAQKFQGRVTITADESTSTAYMELSSLRSEDTAVYYCARSGGTKYGMLDVWGQGTMVTVSS
VL: EIVMTQSPATLSVSPGERATLSCRASQSVSSNLAWYQQKPGQAPRLLIYGASKRATGIPARFSGSGSGTEFTLTISSLQSEDAAVYYCQQLILWPPRTFGGGTKVEIK
B16: antibody 6266, Fab (reference of the affinity maturation SPR) (Fab, V domains shown)
VH: QVQLVQSGAEVKKPGSSVKVSCKASGGTLSGYGVSWVRQAPGQGLEWMGNIIPGFGTANYAQKFQGRVTITADESTSTAYMELSSLRSEDTAVYYCARSGGTKYGMLDVWGQGTMVTVSS
VL: EIVMTQSPATLSVSPGERATLSCRASQSVSSNLAWYQQKPGQAPRLLIYGASTRATGIPARFSGSGSGTEFTLTISSLQSEDFAVYYCQQLILWPPRTFGGGTKVEIK

The binders below were run against His-tagged BACE1 protein (Homo sapiens (Human)) (UniProt P56817) (assay: SPR (BIAcore T200), single-cycle kinetics, His-tagged BACE1 captured by anti-His antibody, Fab injected).

binding, binds:
B1
B2
B3
B4
B5
B6
B7
B8
B9
B10
B11
B12
B13
B14
B15

These binders were tested against His-tagged BACE1 protein (Homo sapiens (Human)) (UniProt P56817) (assay: SPR (BIAcore T200), single-cycle kinetics, His-tagged BACE1 captured by anti-His antibody, Fab injected; reference of the comparison).

binding, binds:
B16
